Reference: publication PMC11477372
These are yes or no findings as the source states them, for the method shown. Some entries that bind do so weakly or less than the wild type. For some assays here: Where a sequence is shown, tags or fusion partners need not be part of it. One block for each molecule: values may come before it.

Chains of the proteins cited; added tags and fusions are not shown.
UniProt P63086: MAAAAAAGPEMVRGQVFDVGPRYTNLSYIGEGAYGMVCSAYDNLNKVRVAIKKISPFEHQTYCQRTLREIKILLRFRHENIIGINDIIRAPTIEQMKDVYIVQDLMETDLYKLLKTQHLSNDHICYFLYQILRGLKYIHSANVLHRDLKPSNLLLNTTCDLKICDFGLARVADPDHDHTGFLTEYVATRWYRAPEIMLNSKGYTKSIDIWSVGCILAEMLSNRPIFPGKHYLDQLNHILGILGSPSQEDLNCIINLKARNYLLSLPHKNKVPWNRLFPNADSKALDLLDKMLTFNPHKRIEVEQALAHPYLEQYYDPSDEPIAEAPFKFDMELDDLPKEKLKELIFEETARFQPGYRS
UniProt P63104: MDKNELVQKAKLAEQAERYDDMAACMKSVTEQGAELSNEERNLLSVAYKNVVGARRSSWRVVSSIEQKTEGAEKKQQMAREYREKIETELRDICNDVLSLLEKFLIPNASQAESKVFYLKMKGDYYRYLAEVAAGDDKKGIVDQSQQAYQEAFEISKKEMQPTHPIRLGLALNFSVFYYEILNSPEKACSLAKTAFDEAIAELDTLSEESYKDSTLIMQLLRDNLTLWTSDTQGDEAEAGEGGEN

What was measured:
[1] = target: T1, PKCδ–mRFP–KSR1 (UniProt Q8IVT5); experiment: translocation-based cellular assay (co-translocation of eGFP-prey with PKCδ–mRFP-bait to the plasma membrane, confocal imaging); living HEK-293T cells co-transfected with one bait and one prey; serum-starved 16–18 h, 100 ng/mL EGF for 5 min, then 1 μM PMA in serum-free DMEM; 37 °C; images 3–5 min after PMA
T1 sequence: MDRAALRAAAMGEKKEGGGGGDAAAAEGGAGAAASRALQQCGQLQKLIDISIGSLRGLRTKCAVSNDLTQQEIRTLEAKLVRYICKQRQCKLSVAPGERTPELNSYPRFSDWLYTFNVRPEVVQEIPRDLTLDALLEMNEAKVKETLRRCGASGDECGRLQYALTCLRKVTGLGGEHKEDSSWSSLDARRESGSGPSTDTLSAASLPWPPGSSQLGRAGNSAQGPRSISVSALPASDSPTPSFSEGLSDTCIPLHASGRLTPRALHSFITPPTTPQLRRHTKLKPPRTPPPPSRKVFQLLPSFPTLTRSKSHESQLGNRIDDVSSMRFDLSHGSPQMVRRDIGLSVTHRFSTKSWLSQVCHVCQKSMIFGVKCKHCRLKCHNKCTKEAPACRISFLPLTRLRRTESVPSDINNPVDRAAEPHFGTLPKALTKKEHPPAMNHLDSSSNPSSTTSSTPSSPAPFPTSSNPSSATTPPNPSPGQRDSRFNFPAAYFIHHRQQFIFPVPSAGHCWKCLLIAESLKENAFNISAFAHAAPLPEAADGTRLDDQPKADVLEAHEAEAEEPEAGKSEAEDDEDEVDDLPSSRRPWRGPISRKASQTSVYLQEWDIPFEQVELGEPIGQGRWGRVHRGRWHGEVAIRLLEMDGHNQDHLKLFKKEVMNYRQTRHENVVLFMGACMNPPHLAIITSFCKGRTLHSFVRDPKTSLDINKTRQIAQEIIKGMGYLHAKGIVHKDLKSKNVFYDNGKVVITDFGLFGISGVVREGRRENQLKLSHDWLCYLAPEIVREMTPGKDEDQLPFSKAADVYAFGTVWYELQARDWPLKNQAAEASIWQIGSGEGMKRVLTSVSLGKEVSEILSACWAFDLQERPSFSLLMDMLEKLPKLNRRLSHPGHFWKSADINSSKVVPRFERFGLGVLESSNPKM

[2] = target: T1, PKCδ–mRFP–KSR1; experiment: translocation-based cellular assay (co-translocation of eGFP-prey with PKCδ–mRFP-bait to the plasma membrane, confocal imaging); living HEK-293T cells co-transfected with one bait and one prey; quiescent cells, without serum or EGF stimulation; PMA treatment; images 3–5 min after PMA
[3] = target: T2, TagBFP–KSR1 (UniProt Q8IVT5); experiment: translocation-based cellular assay (co-translocation of eGFP-prey with PKCδ–mRFP-bait to the plasma membrane, confocal imaging); living HEK-293T cells co-transfected with three constructs (PKCδ–mRFP–MEK2 bait, TagBFP–KSR1, eGFP–14-3-3ζ); quiescent cells, no EGF; PMA treatment; images 3–5 min after PMA
T2 sequence: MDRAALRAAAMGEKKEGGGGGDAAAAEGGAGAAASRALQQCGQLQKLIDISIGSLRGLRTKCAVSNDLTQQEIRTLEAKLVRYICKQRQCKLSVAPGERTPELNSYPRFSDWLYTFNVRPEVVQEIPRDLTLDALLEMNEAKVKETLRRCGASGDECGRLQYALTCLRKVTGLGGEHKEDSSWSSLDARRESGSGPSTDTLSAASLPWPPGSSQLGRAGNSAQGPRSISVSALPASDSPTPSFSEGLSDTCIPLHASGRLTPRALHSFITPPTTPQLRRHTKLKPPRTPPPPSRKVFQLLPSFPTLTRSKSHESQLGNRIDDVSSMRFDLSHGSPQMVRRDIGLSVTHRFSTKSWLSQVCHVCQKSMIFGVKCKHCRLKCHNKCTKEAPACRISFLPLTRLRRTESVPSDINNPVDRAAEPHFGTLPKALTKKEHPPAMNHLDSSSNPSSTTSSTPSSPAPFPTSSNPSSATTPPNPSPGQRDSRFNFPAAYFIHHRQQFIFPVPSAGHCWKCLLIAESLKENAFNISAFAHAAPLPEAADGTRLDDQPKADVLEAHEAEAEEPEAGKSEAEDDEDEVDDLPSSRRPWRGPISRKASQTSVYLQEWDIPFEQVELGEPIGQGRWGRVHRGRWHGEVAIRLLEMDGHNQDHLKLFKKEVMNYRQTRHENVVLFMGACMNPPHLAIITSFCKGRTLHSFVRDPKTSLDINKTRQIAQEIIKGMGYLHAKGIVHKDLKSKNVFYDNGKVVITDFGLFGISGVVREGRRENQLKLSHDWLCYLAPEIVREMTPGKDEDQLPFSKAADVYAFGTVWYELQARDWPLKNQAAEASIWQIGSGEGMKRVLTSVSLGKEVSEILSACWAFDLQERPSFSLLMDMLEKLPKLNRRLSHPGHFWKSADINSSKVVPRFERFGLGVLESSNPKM

[4] = target: PKCδ–mRFP–MEK2 (UniProt P36507); experiment: as above
[5] = target: PKCδ–mRFP–MEK2 (UniProt P36507); experiment: translocation-based cellular assay (co-translocation of eGFP-prey with PKCδ–mRFP-bait to the plasma membrane, confocal imaging); living HEK-293T cells co-transfected with three constructs (PKCδ–mRFP–MEK2 bait, TagBFP–KSR1, eGFP-prey); serum-starved, stimulated with EGF, treated with PMA; images 3–5 min after PMA

- binding [1]: no binding
Molecule: eGFP–ERK2 (from UniProt P63086 1-358)

- binding [2]: binds
- binding [3]: binds
Molecule: eGFP–14-3-3ζ (from UniProt P63104 1-245)

- binding [4]: binds
- binding [5]: binds
B1: TagBFP–KSR1 (protein, UniProt Q8IVT5 1-923)
chain: MDRAALRAAAMGEKKEGGGGGDAAAAEGGAGAAASRALQQCGQLQKLIDISIGSLRGLRTKCAVSNDLTQQEIRTLEAKLVRYICKQRQCKLSVAPGERTPELNSYPRFSDWLYTFNVRPEVVQEIPRDLTLDALLEMNEAKVKETLRRCGASGDECGRLQYALTCLRKVTGLGGEHKEDSSWSSLDARRESGSGPSTDTLSAASLPWPPGSSQLGRAGNSAQGPRSISVSALPASDSPTPSFSEGLSDTCIPLHASGRLTPRALHSFITPPTTPQLRRHTKLKPPRTPPPPSRKVFQLLPSFPTLTRSKSHESQLGNRIDDVSSMRFDLSHGSPQMVRRDIGLSVTHRFSTKSWLSQVCHVCQKSMIFGVKCKHCRLKCHNKCTKEAPACRISFLPLTRLRRTESVPSDINNPVDRAAEPHFGTLPKALTKKEHPPAMNHLDSSSNPSSTTSSTPSSPAPFPTSSNPSSATTPPNPSPGQRDSRFNFPAAYFIHHRQQFIFPVPSAGHCWKCLLIAESLKENAFNISAFAHAAPLPEAADGTRLDDQPKADVLEAHEAEAEEPEAGKSEAEDDEDEVDDLPSSRRPWRGPISRKASQTSVYLQEWDIPFEQVELGEPIGQGRWGRVHRGRWHGEVAIRLLEMDGHNQDHLKLFKKEVMNYRQTRHENVVLFMGACMNPPHLAIITSFCKGRTLHSFVRDPKTSLDINKTRQIAQEIIKGMGYLHAKGIVHKDLKSKNVFYDNGKVVITDFGLFGISGVVREGRRENQLKLSHDWLCYLAPEIVREMTPGKDEDQLPFSKAADVYAFGTVWYELQARDWPLKNQAAEASIWQIGSGEGMKRVLTSVSLGKEVSEILSACWAFDLQERPSFSLLMDMLEKLPKLNRRLSHPGHFWKSADINSSKVVPRFERFGLGVLESSNPKM
